Data from paper PMC5225419.
These are yes or no findings as the source states them, for the method shown. For some of these results: Binding seen in cells or lysates may run through a third protein. Some binding calls cover weakened binding; strength is not graded here. One block for each substance: values may come before it.

Sequences of proteins named here, by UniProt entry; tags and fusion partners are left off. A change or cut given only in a name is not applied to a line headed by its entry. A line that says so, or that is headed by a name, gives the form on record, which may keep a tag or linker.
UniProt O94811: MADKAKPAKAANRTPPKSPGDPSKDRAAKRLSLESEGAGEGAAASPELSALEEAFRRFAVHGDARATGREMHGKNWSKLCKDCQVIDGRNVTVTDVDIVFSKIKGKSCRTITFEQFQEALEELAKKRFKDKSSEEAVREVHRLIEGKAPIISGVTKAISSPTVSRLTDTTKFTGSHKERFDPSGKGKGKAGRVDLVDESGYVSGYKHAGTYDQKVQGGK
CORE segment of TPPP/p25 (delta 3–43/delta 175–219) fused to mVenus BiFC fragments (pBiFC-VN1-173 or pBiFC-VC155-238) (O94811, form named): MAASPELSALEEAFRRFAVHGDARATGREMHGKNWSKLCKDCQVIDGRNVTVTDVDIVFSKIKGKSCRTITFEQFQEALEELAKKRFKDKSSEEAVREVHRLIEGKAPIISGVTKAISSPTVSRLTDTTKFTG

Key:
[1] = biological target: full length (FL) human recombinant TPPP/p25 (Tubulin Polymerization Promoting Protein) (human) (UniProt O94811); experiment: ELISA; sandwich ELISA: plate coated with the TPPP/p25 mAb; TPPP/p25 form added (serial dilutions from 5 uM, or 1 uM) in PBS, 1 h, room temperature, without or with 100 uM DTE; dimers/oligomers detected with the same mAb biotinylated and peroxidase-avidin; no tubulin/MT; both purified
[2] = biological target: full length (FL) human recombinant TPPP/p25 (Tubulin Polymerization Promoting Protein) (human) (UniProt O94811); experiment: ELISA; sandwich ELISA: 1 uM FL or CORE TPPP/p25 reduced with 100 uM DTE (30 min, room temperature) and captured on the mAb-coated plate; excess DTE removed; the different TPPP/p25 forms added; dimers detected with biotinylated mAb; PBS; no tubulin/MT; both purified
[3] = biological target: CORE segment of TPPP/p25 (delta 3–43/delta 175–219) fused to mVenus BiFC fragments (pBiFC-VN1-173 or pBiFC-VC155-238) (human) (UniProt O94811); experiment: split reporter; mVenus BiFC (fragments 1-173 and 155-238) in HeLa cells co-transfected with 0.3 ug of each plasmid; fluorescence microscopy; empty mVenus pair as control
[4] = biological target: FL TPPP/p25 fused to mVenus BiFC fragments (pBiFC-VN1-173 or pBiFC-VC155-238) (human) (UniProt O94811); experiment: as above

binding [1]: binds
binding [2]: binds
Substance: full length (FL) human recombinant TPPP/p25 (Tubulin Polymerization Promoting Protein) (from UniProt O94811 1-219) (other; other documents disagree on this pair)

binding [3]: binds
Substance: CORE segment of TPPP/p25 (delta 3–43/delta 175–219) fused to mVenus BiFC fragments (pBiFC-VN1-173 or pBiFC-VC155-238) (from UniProt O94811 1-174) (domain or fragment)

binding [4]: binds
Substance: FL TPPP/p25 fused to mVenus BiFC fragments (pBiFC-VN1-173 or pBiFC-VC155-238) (from UniProt O94811 1-219) (other; other documents disagree on this pair)
